Measurements reported in PubChem BioAssay AID1053208 (Peter MacCallum Cancer Centre, 2014).

Aim: 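Synthetic lethal interactions between gene loss and doxorubicin in osteosarcoma cells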 (primary screen)
Cells: mouse osteosarcoma cells, early-passage culture from an engineered mouse model of fibroblastic bone tumour
Reagents: siRNA pool against mouse genes, 40 nM
Duration: about 120 h (48 h before drug, then 72 h with drug)
Treatment: doxorubicin 100 nM for 72 h, roughly 30-40% inhibitory dose
Measured: 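Viability read as ATP luminescence after 72 h of 100 nM doxorubicin or none, duplicate wells averaged, scaled to non-targeting siRNA, then expressed as robust z-scores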
Direction: viability z-score with doxorubicin and doxorubicin viability vs non-targeting: higher = more viable cells under doxorubicin; viability z-score without drug: higher = more viable cells with knock-down alone; z-score of drug to no-drug ratio: higher = less drug sensitisation by knock-down
Hit rule: 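a pool counts as active when its viability z-score with doxorubicin is -2 or below and its z-score without drug lies between -2 and 2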
In all, the deposit lists about 17,000 reagents; shown is a random part of them. In the full data, 788 (4.7%) got an active call. 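Calls rest on z-score classes alone; an extra cut-off of viability at most 70% of control was not applied to them.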 Reagents against one gene are numbered here.

target gene,reagent no.,combined z-score class,viability z-score with doxorubicin,viability z-score without drug,z-score of drug to no-drug ratio,doxorubicin viability vs non-targeting,call
Kcnc1,1,high cell count without drug only,0.79,2.19,-0.45,1.01,inactive
Kcnc1,2,no change with or without drug,-0.22,-0.84,0.45,0.92,inactive
Atoh8,1,low cell count with doxorubicin only,-2.14,-0.17,-2.02,0.75,active
Tmem53,1,no change with or without drug,-0.45,0.34,-0.56,0.9,inactive
Ica1l,1,no change with or without drug,0.22,0.17,0.22,0.96,inactive
Arhgap35,1,no change with or without drug,1.12,1.18,0.45,1.04,inactive
Dync1li1,1,no change with or without drug,-0.67,0.17,-0.67,0.88,inactive
H1f2,1,no change with or without drug,1.69,0.51,1.46,1.09,inactive
Aifm1,1,no change with or without drug,-1.57,-1.01,-0.9,0.8,inactive
Tesk2,1,no change with or without drug,-0.67,-1.18,0.22,0.88,inactive
Pitrm1,1,no change with or without drug,-0.45,0,-0.34,0.9,inactive
Gas7,1,no change with or without drug,-0.67,-0.67,-0.11,0.88,inactive
Epha10,1,no change with or without drug,-0.45,0.17,-0.45,0.9,inactive
Tdpoz3,1,no change with or without drug,-1.91,-1.52,-0.9,0.77,inactive
Aga,1,no change with or without drug,0.56,0.84,0.11,0.99,inactive
Pgm2l1,1,no change with or without drug,0.56,-0.17,0.79,0.99,inactive
Pacsin3,1,no change with or without drug,1.35,-0.51,1.91,1.06,inactive
V1rd19,1,no change with or without drug,-0.9,-0.67,-0.34,0.86,inactive
Pcdha3,1,low cell count with and without drug,-2.92,-2.02,-1.8,0.68,inactive
Tmem37,1,no change with or without drug,0.67,-1.01,1.57,1,inactive
Tigd4,1,no change with or without drug,0.45,-0.17,0.67,0.98,inactive
Cldn18,1,no change with or without drug,-1.12,-0.34,-0.9,0.84,inactive
Adam23,1,no change with or without drug,0.34,0.17,0.34,0.97,inactive
Adam23,2,low cell count with doxorubicin only,-3.04,0,-3.04,0.67,active
Herc2,1,no change with or without drug,-0.22,-0.34,0.11,0.92,inactive
Slc37a4,1,no change with or without drug,0.45,0.17,0.45,0.98,inactive
Sae1,1,no change with or without drug,0,0.34,-0.11,0.94,inactive
Syk,1,no change with or without drug,0.67,-0.84,1.46,1,inactive
Spi1,1,no change with or without drug,0,0.34,-0.11,0.94,inactive
Me3,1,no change with or without drug,-0.22,-0.51,0.22,0.92,inactive
RANBP6,1,high cell count with doxorubicin only,2.59,-0.51,3.26,1.17,inactive
Mrps17,1,low cell count without drug only,-0.67,-2.53,1.35,0.88,inactive
Uso1,1,no change with or without drug,-0.45,0.17,-0.45,0.9,inactive
Arhgap18,1,no change with or without drug,-1.01,-0.17,-0.9,0.85,inactive

Already shown: 3 of the entries above.
target gene,reagent no.,combined z-score class,viability z-score with doxorubicin,viability z-score without drug,z-score of drug to no-drug ratio,doxorubicin viability vs non-targeting,call
H1f2,1,no change with or without drug,1.69,0.51,1.46,1.09,inactive
Aifm1,1,no change with or without drug,-1.57,-1.01,-0.9,0.8,inactive
Tesk2,1,no change with or without drug,-0.67,-1.18,0.22,0.88,inactive
